Reference: ChEMBL document CHEMBL1212744, “Relative contributions of active mediated transport and passive diffusion of fluoroquinolones with various lipophilicities in a Calu-3 lung epithelial cell model” (Antimicrob Agents Chemother, 2010)

Columns and labels:
[1] = Apparent permeability across basolateral to apical side in human Calu3 cells
[2] = human
[3] = Apparent permeability across apical to basolateral side in human Calu3 cells
[4] = Efflux ratio of apparent permeability across basolateral to apical side over apical to basolateral side in human Calu3 cells
[5] = Distribution coefficient, log D of the compound; conditions: octanol/water
[6] = human; remark: listed apart in the source

CCn1cc(C(=O)O)c(=O)c2cc(F)c(N3CCN(C)CC3)cc21 [PEFLOXACIN]
Papp B→A [1]: 9.8 ×10⁻⁶ cm/s | Papp [2]: 8.7 ×10⁻⁶ cm/s | Papp A→B [3]: 7.1 ×10⁻⁶ cm/s | efflux ratio [4]: 1.4 | logD [5]: 0.25 | Papp [6]: 8.7 ×10⁻⁶ cm/s
